Patent US20090304706A1
Results are given in words; binding and its absence hold for the method and conditions named. Some entries that bind do so weakly or less than the wild type. Blank lines part the entries; values can stand above or below the binder they belong to.

Chains of the proteins cited; added tags and fusions are not shown. Lines headed by an entry give the natural chain unless they say otherwise; changes in a name come on top.
UniProt P25942: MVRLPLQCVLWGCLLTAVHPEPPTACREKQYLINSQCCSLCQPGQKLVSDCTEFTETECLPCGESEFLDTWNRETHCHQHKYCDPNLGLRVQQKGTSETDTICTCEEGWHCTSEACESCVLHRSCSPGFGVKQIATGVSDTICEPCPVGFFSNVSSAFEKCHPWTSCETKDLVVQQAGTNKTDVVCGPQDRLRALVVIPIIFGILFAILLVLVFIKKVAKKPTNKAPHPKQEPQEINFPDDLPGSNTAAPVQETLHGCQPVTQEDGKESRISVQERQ

Molecular target: soluble CD40 (Homo sapiens (Human)) (UniProt P25942)
Experiment: ELISA-type assays

binding: binds
B1: monoclonal antibody CHIR-5.9 (antibody, human IgG1, kappa, V domains shown)
VH: EVQLVQSGAEVKKPGESLKISCKGSGYSFTSYWIGWVRQMPGKGLEWMGIIYPGDSDTRYSPSFQGQVTISADKSISTAYLQWSSLKASDTAMYYCARGTAAGRDYYYYYGMDVWGQGTTVTVSS
VL: AIVMTQPPLSSPVTLGQPASISCRSSQSLVHSDGNTYLNWLQQRPGQPPRLLIYKFFRRLSGVPDRFSGSGAGTDFTLKISRVEAEDVGVYYCMQVTQFPHTFGQGTRLEIKR

binding: binds
B2: monoclonal antibody CHIR-12.12 (antibody, human IgG1, kappa, V domains shown)
VH: QVQLVESGGGVVQPGRSLRLSCAASGFTFSSYGMHWVRQAPGKGLEWVAVISYEESNRYHADSVKGRFTISRDNSKITLYLQMNSLRTEDTAVYYCARDGGIAAPGPDYWGQGTLVTVSS
VL: DIVMTQSPLSLTVTPGEPASISCRSSQSLLYSNGYNYLDWYLQKPGQSPQVLISLGSNRASGVPDRFSGSGSGTDFTLKISRVEAEDVGVYYCMQARQTPFTFGPGTKVDIRR
